Test results as given in the supplement of paper PMC10032668.
This is one part of the list. Only hits are listed; about a third recur on repeated control peptides.

By UniProt entry, the sequences of proteins in these tests, tags left out.
CDC20, Q12834, UniProt Q12834, whole entry: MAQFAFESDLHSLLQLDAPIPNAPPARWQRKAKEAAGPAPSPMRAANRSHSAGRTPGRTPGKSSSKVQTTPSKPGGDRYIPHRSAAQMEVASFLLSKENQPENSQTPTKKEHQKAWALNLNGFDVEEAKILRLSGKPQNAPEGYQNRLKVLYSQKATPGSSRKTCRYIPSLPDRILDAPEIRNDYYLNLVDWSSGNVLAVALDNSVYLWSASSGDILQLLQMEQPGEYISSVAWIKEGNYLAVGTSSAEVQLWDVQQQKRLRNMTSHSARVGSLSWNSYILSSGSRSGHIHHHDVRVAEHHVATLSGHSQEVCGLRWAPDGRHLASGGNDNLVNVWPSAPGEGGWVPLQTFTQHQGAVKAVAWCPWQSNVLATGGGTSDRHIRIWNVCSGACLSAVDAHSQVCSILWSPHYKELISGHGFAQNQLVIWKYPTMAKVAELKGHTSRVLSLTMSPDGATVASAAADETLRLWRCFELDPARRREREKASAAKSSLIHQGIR
COL1A1, P02452, UniProt P02452, whole entry: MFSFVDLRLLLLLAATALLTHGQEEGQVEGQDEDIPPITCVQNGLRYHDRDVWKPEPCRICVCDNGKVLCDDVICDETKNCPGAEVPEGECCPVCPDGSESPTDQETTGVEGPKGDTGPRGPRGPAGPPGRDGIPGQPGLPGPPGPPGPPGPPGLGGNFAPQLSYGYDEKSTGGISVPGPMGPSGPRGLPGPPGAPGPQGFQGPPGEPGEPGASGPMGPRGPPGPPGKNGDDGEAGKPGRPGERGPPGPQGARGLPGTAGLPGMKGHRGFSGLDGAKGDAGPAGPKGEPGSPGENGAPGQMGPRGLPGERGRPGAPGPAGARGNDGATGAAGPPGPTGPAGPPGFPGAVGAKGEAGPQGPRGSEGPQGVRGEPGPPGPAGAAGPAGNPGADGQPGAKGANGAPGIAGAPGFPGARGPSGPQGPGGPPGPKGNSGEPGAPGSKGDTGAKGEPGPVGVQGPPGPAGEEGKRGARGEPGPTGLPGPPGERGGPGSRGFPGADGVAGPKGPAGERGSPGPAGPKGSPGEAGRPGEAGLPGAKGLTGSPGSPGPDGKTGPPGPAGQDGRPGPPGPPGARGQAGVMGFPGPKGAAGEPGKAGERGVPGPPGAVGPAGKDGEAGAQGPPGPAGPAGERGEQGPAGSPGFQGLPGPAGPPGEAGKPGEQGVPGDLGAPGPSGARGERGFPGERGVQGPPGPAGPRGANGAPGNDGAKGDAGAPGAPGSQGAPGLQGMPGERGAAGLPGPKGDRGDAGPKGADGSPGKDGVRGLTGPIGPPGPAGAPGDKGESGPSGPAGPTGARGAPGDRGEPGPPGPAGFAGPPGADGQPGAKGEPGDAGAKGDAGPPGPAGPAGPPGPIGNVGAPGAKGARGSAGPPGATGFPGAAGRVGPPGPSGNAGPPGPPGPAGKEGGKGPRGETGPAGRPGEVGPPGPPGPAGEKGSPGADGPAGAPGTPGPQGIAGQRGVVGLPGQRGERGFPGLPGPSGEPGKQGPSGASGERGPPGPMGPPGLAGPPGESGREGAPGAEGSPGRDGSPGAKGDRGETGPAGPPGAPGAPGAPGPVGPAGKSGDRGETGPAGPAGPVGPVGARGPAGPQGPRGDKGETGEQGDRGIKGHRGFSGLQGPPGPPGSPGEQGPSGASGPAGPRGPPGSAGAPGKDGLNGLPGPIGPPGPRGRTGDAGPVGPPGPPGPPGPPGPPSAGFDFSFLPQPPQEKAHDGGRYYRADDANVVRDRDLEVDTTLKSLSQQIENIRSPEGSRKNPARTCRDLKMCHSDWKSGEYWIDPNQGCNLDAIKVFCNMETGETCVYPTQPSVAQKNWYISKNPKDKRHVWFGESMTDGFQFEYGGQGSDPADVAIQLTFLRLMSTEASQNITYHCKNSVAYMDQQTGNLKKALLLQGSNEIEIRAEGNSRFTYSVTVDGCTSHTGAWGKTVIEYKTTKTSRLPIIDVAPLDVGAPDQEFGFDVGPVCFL
RAD18, Q9NS91, UniProt Q9NS91, whole entry: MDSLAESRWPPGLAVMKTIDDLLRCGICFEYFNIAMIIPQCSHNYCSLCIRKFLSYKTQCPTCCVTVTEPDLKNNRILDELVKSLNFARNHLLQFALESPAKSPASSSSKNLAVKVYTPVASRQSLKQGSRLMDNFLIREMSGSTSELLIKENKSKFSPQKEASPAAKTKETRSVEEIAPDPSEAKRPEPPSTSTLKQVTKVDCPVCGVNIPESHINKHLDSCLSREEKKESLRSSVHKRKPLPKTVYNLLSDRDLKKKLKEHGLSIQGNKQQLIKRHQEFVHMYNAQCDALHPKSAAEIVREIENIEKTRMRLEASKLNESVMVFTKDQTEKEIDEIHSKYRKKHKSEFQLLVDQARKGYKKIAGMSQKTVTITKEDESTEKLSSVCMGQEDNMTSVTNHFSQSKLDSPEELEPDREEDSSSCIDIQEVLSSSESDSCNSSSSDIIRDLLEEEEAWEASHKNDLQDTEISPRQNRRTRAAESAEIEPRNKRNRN
ACTBL2, Q562R1, UniProt Q562R1, whole entry: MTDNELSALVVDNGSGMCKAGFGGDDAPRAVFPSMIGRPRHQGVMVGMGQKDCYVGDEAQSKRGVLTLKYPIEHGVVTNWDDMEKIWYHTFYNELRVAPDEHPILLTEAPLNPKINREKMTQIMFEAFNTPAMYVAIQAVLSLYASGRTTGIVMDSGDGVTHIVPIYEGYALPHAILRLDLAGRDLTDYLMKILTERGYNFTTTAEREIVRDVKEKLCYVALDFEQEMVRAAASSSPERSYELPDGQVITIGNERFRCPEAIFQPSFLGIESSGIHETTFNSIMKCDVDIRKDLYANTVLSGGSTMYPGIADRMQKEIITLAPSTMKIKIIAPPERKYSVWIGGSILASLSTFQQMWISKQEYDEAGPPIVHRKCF
COIL, P38432, UniProt P38432, whole entry: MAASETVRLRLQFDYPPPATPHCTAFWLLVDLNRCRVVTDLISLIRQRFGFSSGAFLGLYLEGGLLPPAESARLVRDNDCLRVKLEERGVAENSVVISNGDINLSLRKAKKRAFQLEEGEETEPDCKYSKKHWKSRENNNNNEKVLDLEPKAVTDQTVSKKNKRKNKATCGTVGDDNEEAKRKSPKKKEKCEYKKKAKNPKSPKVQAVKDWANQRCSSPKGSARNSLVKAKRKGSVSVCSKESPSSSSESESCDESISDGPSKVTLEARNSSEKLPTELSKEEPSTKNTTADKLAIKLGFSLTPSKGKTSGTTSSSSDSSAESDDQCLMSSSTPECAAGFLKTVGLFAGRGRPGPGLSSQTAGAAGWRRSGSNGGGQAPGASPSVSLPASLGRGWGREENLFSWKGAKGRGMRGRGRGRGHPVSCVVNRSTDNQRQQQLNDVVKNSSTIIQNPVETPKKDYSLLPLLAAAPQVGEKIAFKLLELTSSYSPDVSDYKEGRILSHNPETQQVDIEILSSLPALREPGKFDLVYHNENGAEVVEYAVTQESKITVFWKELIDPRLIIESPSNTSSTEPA
DCTN1, Q14203, UniProt Q14203, whole entry: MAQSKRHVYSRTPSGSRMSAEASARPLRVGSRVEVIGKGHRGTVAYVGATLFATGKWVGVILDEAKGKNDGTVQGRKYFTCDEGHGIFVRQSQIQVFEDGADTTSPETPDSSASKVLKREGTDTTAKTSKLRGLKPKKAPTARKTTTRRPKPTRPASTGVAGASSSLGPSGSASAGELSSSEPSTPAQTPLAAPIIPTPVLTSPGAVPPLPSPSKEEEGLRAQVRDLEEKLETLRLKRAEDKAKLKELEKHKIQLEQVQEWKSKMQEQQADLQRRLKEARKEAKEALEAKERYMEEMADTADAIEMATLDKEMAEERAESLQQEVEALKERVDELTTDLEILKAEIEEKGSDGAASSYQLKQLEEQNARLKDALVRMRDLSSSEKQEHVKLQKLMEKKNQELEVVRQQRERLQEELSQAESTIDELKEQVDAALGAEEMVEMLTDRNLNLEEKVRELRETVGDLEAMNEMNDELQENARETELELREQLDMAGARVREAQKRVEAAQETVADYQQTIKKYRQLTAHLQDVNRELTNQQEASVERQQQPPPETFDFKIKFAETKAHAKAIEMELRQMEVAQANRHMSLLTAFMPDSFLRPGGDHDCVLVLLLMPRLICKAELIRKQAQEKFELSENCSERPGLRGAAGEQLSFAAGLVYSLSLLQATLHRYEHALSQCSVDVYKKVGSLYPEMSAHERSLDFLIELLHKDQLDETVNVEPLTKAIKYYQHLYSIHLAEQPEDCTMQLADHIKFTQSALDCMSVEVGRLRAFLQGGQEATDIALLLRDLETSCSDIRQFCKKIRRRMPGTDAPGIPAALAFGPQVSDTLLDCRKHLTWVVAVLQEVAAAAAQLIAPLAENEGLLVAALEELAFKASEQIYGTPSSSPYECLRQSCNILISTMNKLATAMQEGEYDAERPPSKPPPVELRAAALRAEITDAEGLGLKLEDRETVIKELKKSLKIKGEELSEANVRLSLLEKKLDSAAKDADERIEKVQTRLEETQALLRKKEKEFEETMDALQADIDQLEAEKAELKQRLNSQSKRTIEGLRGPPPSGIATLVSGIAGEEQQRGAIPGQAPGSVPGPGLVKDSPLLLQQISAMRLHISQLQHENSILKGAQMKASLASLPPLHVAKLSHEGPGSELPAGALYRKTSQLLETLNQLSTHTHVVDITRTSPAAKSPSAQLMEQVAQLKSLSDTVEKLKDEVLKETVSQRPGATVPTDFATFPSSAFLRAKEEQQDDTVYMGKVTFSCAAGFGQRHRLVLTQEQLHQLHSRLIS

Key:
Test in all cases: PRISMA enrichment of interactor (LFQ) in peptide spot vs all other peptide spots (log2 fold change); higher = stronger / more specific binding of the interactor to the peptide
ACAT2, Q9BWD1 = target: ACAT2, Q9BWD1
Method: (§1)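 PRISMA: 221 full-length sORF-encoded peptides (3-15 aa), plus SOS1/GLUT1 control peptides, were spot-synthesized on cellulose membranes in triplicate. Membranes were incubated with HEK293T lysate, and bound proteins were identified by LC-MS/MS with LFQ. Enrichment is the log2 fold change versus all other peptide spots; only significant interactors are listed (cutoff c=6, x0=2.8).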

CDC20, Q12834 = target: CDC20, Q12834
Method: as §1

COL1A1, P02452 = target: COL1A1, P02452
Method: as §1

COL1A2, P08123 = target: COL1A2, P08123
Method: as §1

GPC1, P35052 = target: GPC1, P35052
Method: as §1

HASPIN, Q8TF76 = target: HASPIN, Q8TF76
Method: as §1

MCU, Q8NE86 = target: MCU, Q8NE86
Method: as §1

MRPL55, Q7Z7F7 = target: MRPL55, Q7Z7F7
Method: as §1

NAE1, Q13564 = target: NAE1, Q13564
Method: as §1

RAD18, Q9NS91 = target: RAD18, Q9NS91
Method: as §1

SKI, P12755 = target: SKI, P12755
Method: as §1

VPS52, Q8N1B4 = target: VPS52, Q8N1B4
Method: as §1

ACTBL2, Q562R1 = target: ACTBL2, Q562R1
Method: as §1

COIL, P38432 = target: COIL, P38432
Method: as §1

DCTN1, Q14203 = target: DCTN1, Q14203
Method: as §1

DDX41, Q9UJV9 = target: DDX41, Q9UJV9
Method: as §1

EMILIN1, Q9Y6C2 = target: EMILIN1, Q9Y6C2
Method: as §1

MPHOSPH10, O00566 = target: MPHOSPH10, O00566
Method: as §1

SOX8, P57073 = target: SOX8, P57073
Method: as §1

Binder	PRISMA enrichment of interactor (log2) (ACAT2, Q9BWD1)	PRISMA enrichment of interactor (log2) (CDC20, Q12834)	PRISMA enrichment of interactor (log2) (COL1A1, P02452)	PRISMA enrichment of interactor (log2) (COL1A2, P08123)	PRISMA enrichment of interactor (log2) (GPC1, P35052)	PRISMA enrichment of interactor (log2) (HASPIN, Q8TF76)	PRISMA enrichment of interactor (log2) (MCU, Q8NE86)	PRISMA enrichment of interactor (log2) (MRPL55, Q7Z7F7)	PRISMA enrichment of interactor (log2) (NAE1, Q13564)	PRISMA enrichment of interactor (log2) (RAD18, Q9NS91)	PRISMA enrichment of interactor (log2) (SKI, P12755)	PRISMA enrichment of interactor (log2) (VPS52, Q8N1B4)	PRISMA enrichment of interactor (log2) (ACTBL2, Q562R1)	PRISMA enrichment of interactor (log2) (COIL, P38432)	PRISMA enrichment of interactor (log2) (DCTN1, Q14203)	PRISMA enrichment of interactor (log2) (DDX41, Q9UJV9)	PRISMA enrichment of interactor (log2) (EMILIN1, Q9Y6C2)	PRISMA enrichment of interactor (log2) (MPHOSPH10, O00566)	PRISMA enrichment of interactor (log2) (SOX8, P57073)
MAAAAGRP [TMEM259]	4.37	5.69	4.35	7.27	6.58	4.42	11.9	4.6	5.69	6.76	6.05	13.4							
MLSEARRDPGES [RHOB]													6.43	5.49	7.23	6.86	5.65	5.26	7.43
